Experimental data taken from article PMC7291146.
These are yes or no findings as the source states them, for the method shown. Binding seen in cells or lysates may run through a third protein. Sequences can lack the tags named with a protein.

Target: myc-AdipoR1 (rat adiponectin receptor-1) (rat)
Assay: co-IP; H9C2 cardiomyoblasts transiently expressing myc-AdipoR1 and FLAG-tagged partners; lysis in 50 mmol/L Tris pH 7.5, 0.5% deoxycholic acid, 0.5% Triton X-100, 10 mmol/L EDTA; 200 ug lysate; myc antibody on protein A/G agarose or FLAG antibody on Dynabeads, 4 °C overnight, five washes; detection with FLAG or myc antibodies

B1: FLAG-gC1qR (rat globular C1q receptor) (protein, UniProt O35796 72-279)
chain: LHTEGDKAFVEFLTDEIKEEKKIQKHKSLPKMSGDWELEVNGTEAKLLRKVAGEKITVTFNINNSIPPTFDGEEEPSQGQKAEEQEPELTSTPNFVVEVTKTDGKKTLVLDCHYPEDEIGHEDEAESDIFSIKEVSFQTTGDSEWRDTNYTLNTDSLDWALYDHLMDFLADRGVDNTFADELVELSTALEHQEYITFLEDLKSFVKSQ
binding: no binding
